# Measured values published in paper doi:10.1101/2025.09.26.678755.
# By UniProt entry, the sequences of proteins in these tests, tags left out.
# UniProt P46934: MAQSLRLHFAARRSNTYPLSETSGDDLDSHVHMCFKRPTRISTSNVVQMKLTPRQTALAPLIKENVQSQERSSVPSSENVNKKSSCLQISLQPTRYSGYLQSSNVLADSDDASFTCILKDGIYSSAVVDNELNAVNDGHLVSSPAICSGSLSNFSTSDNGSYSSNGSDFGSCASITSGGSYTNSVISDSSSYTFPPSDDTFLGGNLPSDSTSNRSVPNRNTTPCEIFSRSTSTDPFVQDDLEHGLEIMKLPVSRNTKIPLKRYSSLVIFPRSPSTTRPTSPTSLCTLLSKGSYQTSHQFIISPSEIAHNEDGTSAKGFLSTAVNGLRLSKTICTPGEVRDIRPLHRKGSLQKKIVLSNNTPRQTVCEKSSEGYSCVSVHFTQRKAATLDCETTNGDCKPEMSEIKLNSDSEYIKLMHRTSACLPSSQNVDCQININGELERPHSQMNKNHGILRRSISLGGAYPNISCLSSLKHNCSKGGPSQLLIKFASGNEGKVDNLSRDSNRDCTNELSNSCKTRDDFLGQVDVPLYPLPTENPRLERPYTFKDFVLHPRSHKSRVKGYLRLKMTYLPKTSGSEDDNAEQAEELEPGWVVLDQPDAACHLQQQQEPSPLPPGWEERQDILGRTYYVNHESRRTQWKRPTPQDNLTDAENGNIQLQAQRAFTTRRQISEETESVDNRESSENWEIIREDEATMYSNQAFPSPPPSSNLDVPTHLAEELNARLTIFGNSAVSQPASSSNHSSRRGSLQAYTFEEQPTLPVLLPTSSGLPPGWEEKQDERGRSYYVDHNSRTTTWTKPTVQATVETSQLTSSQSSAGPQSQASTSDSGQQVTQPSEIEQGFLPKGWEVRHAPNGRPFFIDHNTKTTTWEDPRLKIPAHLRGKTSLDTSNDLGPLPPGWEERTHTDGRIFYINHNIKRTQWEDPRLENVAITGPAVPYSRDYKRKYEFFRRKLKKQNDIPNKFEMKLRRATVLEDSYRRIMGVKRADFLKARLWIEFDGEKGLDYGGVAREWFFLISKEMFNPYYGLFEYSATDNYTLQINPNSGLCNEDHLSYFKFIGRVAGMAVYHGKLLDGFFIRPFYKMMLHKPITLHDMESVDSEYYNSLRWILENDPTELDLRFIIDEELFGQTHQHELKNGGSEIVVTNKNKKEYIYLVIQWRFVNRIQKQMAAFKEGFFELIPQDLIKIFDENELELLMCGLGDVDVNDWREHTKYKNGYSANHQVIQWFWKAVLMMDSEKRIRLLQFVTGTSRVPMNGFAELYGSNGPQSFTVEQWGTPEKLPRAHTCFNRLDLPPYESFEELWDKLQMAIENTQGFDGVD
# UniProt O14933: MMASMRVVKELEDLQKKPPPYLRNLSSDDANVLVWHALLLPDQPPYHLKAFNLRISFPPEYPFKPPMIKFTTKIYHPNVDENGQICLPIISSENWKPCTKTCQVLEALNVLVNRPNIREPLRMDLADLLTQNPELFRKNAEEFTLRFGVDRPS
# Results are given in words; binding and its absence hold for the method and conditions named. Some results given as binding are weak or reduced against the parent protein; the word gives no strength.
# Target: NEDD4 (human) (UniProt P46934)
# Experiment: ITC
substance,measurement,value
UbcH8 (from UniProt O14933 1-153) (enzyme),binding,binds
